## Primary screen of a compound library

Chains of the proteins cited; added tags and fusions are not shown.
UniProt E9BF75, entry or part of it: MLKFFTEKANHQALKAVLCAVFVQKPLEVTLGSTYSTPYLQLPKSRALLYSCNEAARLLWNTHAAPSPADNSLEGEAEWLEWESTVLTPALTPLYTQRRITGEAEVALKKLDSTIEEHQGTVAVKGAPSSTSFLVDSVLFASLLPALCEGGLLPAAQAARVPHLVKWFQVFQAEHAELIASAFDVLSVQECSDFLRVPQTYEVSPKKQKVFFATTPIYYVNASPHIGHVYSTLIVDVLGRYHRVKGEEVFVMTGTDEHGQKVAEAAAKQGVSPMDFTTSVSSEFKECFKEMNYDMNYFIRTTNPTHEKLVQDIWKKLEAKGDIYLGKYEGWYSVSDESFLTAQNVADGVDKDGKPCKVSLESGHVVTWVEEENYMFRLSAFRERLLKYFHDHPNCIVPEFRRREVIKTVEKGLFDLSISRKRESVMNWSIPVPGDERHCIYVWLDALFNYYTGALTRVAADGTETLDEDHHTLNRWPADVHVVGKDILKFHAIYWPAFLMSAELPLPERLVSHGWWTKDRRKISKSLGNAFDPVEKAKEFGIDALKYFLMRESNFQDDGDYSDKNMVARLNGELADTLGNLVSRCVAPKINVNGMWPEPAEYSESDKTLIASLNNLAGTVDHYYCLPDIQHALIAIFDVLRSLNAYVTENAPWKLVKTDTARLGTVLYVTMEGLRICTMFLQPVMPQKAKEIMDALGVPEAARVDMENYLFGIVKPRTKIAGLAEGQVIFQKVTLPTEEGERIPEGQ

Mtb heat-shock: 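Assay on Mycobacterium tuberculosis, filed only as a heat shock assay from Cornell; the read-out is not stated. The concentration is filed as 10 mM, unlikely as a test dose, so the dose is not known. The record gives no direction; compounds that gave an IC50 in retests scored well above the rest, so higher reads as stronger inhibition. About 69,000 compounds were tested under these conditions; 1.4% (about 930) showed 50% or more at least once.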
LdMetRS: 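Methionyl-tRNA synthetase (putative), Leishmania donovani (UniProt E9BF75). Primary screen of methionyl-tRNA synthetase; the read-out is not stated. The test concentration is not given. Values are per cent inhibition. Of about 68,000 compounds tested this way, about 24 (0.035%) reached 50% or more in at least one test.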
Mtb growth Cornell: 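Whole-cell assay for inhibitors of Mycobacterium tuberculosis growth, labelled Cornell in the record; the read-out is not stated. The concentration is filed as 10 mM, unlikely as a test dose, so the dose is not known. The record gives no direction; compounds strong in two other growth screens of this library score well above the rest, so higher reads as stronger inhibition. Of about 53,000 compounds tested this way, about 900 (1.7%) reached 50% or more in at least one test.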

All values are in %.
The controls that fix the scale are not given in the record; negative values are as filed.
This is an unselected part of the compounds tested.

* Cc1nc(C)n(CC2CCCN2CCC(=O)N2CCCCC2)n1 (stereo not drawn) | Mtb heat-shock: 3.741%; LdMetRS: 23.76%
* O=C(O)C(F)(F)F.O=C(O)C(F)(F)F.[H][C@]12OCCN(C3CCOCC3)[C@@]1([H])CC[C@@H]2OCc1cccnc1 | Mtb heat-shock: -27.71%; Mtb growth Cornell: 22.19%
* Cc1nc(C2CCN(C(=O)c3ccc(=O)n(C)c3)CC2)c2sccn12 | Mtb heat-shock: -8.339%; LdMetRS: 11.99%; Mtb growth Cornell: 2.621%
* O=C(NC1CCC1)c1cccc(S(=O)(=O)NCc2nc(C3CC3)no2)c1 | Mtb heat-shock: -27.27%; LdMetRS: -2.241%; Mtb growth Cornell: -26.04%
* COc1ccc(N2CCCN(CC(=O)N3CCNC(=O)C3)CC2)cc1 | Mtb heat-shock: -12.02%; LdMetRS: 20.17%
* [H][C@]12CNC[C@@]1(C(=O)N(C)Cc1nc(C)c[nH]1)CN(c1ncccn1)C2 | Mtb heat-shock: -7.393%; Mtb growth Cornell: -5.922%
* CC(C)COC1CC2(CCN(Cc3nccn3C)CC2)C1 | LdMetRS: 12.33%
* Cn1ccc(C(=O)N2CCC(Cc3cnc4[nH]ccc4c3)CC2)n1 | Mtb heat-shock: -10.49%; LdMetRS: 15.41%; Mtb growth Cornell: 16.21%
* COCC(=O)N1CCC(Nc2ccnc3ccc(Cl)cc23)CC1 | Mtb heat-shock: 18.52%; LdMetRS: 13.35%
* [H][C@@]12CCN(C)[C@]1([H])CN(C(=O)c1csc(NC)n1)C2 | Mtb heat-shock: 9.767%; Mtb growth Cornell: -2.704%
* Cc1cc(C(=O)N2CC(=O)Nc3cnccc32)c(Cl)cc1F | Mtb heat-shock: -22.86%; LdMetRS: 10.37%; Mtb growth Cornell: 13.72%
* [H][C@]12CCN(C(=O)c3ccccc3F)C[C@@]1([H])OCCN(c1ncccn1)C2 | Mtb heat-shock: -20.24%; Mtb growth Cornell: 12.82%
* COC(=O)N1CCCC(C(=O)NCc2cc3cccc(OC)c3o2)C1 (stereo not drawn) | Mtb heat-shock: 8.885%; LdMetRS: 9.859%; Mtb growth Cornell: 25.59%
* Cc1noc(-c2cccnc2N(C)Cc2cc(C)on2)n1 | Mtb heat-shock: -9.697%; LdMetRS: -57.73%
* N#Cc1ccsc1C(=O)N1CCCN(Cc2cscn2)CC1 | Mtb heat-shock: 7.385%; LdMetRS: 8.84%
* CCCN(Cc1cccnc1)C1CC(C)(C)NC(C)(C)C1 | LdMetRS: 10.59%
* Cc1cc(C[C@@H]2CCC[C@H]2NCc2ccccc2C)on1 | LdMetRS: 7.294%
* CN(C)c1nccc(C2CCN(C3CCCCC3O)CC2)n1 (stereo not drawn) | Mtb heat-shock: -34.95%; LdMetRS: 7.595%; Mtb growth Cornell: -26.39%
* O=C(c1cc(C2CC2)on1)N1C[C@H]2CC[C@](O)(c3ccccc3F)[C@H]2C1 | LdMetRS: 7.812%
* O=C(Nc1cccc(CNCc2cccnc2)c1)C1CCCC1 | Mtb heat-shock: 13.85%; LdMetRS: 13.65%
* O=C(NC[C@H]1C[C@@H]2CCN1C[C@@H]2CN1CCOCC1)Nc1ccsc1 | LdMetRS: 10.99%
* CN1CCN(CCCOc2ccccc2CN2C[C@H]3CC[C@H]2C3)CC1 | LdMetRS: 22.05%

2 of the entries, repeated:

{"compound": "N#Cc1ccsc1C(=O)N1CCCN(Cc2cscn2)CC1", "Mtb heat-shock": 7.385, "LdMetRS": 8.84}
{"compound": "O=C(c1cc(C2CC2)on1)N1C[C@H]2CC[C@](O)(c3ccccc3F)[C@H]2C1", "LdMetRS": 7.812}

Data taken from ChEMBL document CHEMBL3988442, “University of Dundee, Small-Polar-MMV Screening Library” (2021).